Some of the results follow.
How the values were obtained:
Assay in all cases: log2 fold change, soluble protein after heating vs DMSO (PISA); higher = thermal stabilisation; K562 cells, 10 uM, 30 min; active = over 0.2 and 3.5 SD of the protein, either way, in both replicates (recomputed)
[1] = compound: CC1=C(C=C(C=C1)NC(=O)C2=CC(=CC=C2)C(C)(C)C#N)NC3=CC4=C(C=C3)N=CN(C4=O)C
Procedure, shortened: (§1)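 Soluble protein was quantified by TMTpro 16plex LC-MS/MS after channel sums were equalised. It was obtained as the supernatant after 21,000xg for 90 min from pooled aliquots of K562 cells (2×10^6 cells/mL, 10 μM compound, 30 min) heated for 3 min across 48°C-58°C and extracted in PBS with 0.5% NP-40 at 4°C. Thermal stability values are relative to control samples and come from duplicates. They are given as log2 fold changes.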

Protein sequences, listed by entry. Tags and fused reporters are not part of them. Lines headed by an entry give the natural chain unless they say otherwise; changes in a name come on top.
UniProt Q14240, whole entry, looked up: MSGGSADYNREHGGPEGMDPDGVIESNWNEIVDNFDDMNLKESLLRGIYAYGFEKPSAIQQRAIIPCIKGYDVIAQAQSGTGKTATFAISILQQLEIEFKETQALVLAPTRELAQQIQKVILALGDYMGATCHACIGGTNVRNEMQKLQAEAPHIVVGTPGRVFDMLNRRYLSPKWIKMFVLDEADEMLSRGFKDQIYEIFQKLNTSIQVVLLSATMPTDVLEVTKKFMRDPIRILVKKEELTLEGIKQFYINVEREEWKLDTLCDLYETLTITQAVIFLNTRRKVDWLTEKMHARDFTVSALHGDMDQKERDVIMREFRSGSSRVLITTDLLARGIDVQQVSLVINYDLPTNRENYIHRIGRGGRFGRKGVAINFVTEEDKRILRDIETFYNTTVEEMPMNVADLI
UniProt Q09472, whole entry, looked up: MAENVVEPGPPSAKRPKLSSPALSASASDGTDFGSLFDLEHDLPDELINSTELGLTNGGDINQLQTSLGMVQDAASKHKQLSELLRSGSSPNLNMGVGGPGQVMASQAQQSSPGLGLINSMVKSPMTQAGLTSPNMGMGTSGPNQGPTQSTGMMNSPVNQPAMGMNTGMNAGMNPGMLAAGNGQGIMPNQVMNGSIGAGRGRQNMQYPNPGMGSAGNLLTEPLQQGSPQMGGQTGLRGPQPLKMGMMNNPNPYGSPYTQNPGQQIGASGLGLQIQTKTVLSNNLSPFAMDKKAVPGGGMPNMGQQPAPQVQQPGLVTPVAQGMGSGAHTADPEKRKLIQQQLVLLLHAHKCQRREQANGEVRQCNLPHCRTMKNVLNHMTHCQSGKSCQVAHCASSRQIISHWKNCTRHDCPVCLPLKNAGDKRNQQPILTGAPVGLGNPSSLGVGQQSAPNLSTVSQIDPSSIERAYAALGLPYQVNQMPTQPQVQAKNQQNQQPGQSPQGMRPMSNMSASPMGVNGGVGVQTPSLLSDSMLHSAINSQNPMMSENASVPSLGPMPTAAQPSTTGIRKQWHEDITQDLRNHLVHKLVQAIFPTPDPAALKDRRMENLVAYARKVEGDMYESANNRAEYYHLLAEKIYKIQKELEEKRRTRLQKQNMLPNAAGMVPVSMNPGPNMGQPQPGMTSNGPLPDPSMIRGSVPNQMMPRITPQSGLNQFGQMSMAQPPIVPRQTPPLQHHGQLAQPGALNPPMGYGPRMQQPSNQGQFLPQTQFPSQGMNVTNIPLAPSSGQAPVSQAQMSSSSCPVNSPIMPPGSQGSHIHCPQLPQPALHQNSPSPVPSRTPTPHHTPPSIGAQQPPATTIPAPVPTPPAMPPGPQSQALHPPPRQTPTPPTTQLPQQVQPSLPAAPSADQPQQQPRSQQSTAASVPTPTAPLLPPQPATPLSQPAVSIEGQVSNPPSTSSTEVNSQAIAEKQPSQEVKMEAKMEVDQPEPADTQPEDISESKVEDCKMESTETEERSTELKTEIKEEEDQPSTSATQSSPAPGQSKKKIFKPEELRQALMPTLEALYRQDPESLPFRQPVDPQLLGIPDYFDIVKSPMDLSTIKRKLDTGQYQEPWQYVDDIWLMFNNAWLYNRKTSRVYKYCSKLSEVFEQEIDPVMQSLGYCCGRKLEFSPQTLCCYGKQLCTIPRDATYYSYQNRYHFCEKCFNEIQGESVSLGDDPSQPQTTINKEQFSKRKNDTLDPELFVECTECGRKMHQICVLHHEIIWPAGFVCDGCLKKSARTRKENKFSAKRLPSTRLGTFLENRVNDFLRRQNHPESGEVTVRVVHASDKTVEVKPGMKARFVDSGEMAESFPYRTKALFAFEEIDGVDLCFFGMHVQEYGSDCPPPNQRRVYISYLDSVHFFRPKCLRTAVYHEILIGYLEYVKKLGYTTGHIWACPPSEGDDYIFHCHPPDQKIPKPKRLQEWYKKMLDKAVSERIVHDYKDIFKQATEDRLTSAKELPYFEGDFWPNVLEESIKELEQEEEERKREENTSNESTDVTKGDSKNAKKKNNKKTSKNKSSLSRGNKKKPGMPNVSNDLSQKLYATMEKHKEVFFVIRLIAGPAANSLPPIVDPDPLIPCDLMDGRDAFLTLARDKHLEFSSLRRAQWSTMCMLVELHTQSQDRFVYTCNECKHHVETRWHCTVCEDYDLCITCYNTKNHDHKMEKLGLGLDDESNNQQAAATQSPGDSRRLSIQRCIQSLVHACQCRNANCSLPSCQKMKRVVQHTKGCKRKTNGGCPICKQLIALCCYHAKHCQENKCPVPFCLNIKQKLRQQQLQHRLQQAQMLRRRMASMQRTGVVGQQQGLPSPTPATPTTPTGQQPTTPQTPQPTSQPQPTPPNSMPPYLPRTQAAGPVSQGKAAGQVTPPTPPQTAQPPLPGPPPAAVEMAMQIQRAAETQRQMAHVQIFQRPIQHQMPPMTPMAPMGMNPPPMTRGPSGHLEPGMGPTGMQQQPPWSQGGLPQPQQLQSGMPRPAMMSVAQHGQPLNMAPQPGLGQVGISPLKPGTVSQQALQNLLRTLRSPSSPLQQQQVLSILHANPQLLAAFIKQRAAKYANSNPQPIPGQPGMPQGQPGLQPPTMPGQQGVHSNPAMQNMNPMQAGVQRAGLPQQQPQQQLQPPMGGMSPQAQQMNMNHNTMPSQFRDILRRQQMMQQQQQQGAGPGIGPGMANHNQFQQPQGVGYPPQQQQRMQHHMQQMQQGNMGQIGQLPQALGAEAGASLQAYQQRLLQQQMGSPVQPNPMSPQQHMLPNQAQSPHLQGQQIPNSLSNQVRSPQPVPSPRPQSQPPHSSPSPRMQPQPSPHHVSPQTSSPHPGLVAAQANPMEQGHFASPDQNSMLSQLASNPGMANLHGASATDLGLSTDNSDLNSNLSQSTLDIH
UniProt O95834: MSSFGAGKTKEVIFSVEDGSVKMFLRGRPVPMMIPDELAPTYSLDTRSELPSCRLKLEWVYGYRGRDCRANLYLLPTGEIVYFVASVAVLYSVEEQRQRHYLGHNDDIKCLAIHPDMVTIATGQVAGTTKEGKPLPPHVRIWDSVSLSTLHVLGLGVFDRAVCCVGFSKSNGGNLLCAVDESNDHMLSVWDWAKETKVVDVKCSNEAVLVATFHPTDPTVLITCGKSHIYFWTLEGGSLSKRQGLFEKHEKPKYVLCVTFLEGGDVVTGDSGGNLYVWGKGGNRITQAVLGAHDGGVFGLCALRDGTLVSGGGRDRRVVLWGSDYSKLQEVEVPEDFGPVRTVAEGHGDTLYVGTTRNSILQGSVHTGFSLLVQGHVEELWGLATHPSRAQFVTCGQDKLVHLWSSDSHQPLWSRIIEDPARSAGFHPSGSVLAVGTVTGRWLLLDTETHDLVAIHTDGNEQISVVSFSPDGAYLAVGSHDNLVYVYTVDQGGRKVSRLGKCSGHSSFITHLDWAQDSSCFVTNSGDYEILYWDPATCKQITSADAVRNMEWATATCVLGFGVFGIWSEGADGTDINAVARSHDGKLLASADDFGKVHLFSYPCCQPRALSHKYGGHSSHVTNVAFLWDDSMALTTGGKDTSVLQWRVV
UniProt O00303, whole entry, looked up: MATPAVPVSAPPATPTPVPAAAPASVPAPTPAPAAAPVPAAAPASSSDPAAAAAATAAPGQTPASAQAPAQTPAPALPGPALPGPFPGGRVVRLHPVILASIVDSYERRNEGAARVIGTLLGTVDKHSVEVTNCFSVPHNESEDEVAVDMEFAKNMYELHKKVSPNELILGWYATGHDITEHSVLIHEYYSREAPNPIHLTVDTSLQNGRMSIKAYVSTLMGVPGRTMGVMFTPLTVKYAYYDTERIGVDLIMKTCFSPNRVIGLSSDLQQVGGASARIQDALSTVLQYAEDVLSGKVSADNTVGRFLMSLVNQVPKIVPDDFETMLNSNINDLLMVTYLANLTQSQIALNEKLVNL
UniProt Q14152, whole entry, looked up: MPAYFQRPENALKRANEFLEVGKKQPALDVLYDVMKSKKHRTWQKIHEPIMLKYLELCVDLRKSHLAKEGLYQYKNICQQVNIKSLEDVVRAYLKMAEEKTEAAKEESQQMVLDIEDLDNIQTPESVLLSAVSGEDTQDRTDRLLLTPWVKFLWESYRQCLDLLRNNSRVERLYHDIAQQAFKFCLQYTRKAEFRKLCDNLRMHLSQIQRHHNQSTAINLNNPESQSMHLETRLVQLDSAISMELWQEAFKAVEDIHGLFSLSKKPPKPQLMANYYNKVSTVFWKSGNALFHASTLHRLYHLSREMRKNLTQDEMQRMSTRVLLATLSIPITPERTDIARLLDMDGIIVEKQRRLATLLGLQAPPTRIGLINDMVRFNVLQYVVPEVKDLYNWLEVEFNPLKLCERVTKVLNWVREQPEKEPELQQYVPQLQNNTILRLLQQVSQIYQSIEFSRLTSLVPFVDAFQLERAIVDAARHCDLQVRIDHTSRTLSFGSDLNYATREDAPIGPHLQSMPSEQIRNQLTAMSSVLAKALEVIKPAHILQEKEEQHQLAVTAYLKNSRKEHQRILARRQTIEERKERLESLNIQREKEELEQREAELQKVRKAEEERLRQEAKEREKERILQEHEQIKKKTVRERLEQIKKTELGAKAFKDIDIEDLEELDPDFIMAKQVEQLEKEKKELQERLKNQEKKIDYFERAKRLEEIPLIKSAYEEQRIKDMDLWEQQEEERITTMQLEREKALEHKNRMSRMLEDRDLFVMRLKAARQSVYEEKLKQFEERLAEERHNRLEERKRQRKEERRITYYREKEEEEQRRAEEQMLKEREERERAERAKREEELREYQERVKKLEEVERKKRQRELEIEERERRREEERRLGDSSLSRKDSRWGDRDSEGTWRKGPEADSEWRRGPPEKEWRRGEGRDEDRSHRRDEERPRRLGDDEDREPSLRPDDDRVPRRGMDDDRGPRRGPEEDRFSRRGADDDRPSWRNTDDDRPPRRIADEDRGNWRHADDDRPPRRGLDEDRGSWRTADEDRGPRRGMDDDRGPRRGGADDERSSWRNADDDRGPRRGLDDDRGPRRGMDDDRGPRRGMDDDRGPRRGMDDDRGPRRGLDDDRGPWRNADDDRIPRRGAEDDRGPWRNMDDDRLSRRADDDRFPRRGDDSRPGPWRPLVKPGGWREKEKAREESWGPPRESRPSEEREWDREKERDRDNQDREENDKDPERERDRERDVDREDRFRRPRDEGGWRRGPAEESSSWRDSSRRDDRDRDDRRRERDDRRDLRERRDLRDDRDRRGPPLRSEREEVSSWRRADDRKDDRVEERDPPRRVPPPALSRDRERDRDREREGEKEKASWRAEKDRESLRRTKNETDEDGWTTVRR
UniProt Q9UI10, whole entry, looked up: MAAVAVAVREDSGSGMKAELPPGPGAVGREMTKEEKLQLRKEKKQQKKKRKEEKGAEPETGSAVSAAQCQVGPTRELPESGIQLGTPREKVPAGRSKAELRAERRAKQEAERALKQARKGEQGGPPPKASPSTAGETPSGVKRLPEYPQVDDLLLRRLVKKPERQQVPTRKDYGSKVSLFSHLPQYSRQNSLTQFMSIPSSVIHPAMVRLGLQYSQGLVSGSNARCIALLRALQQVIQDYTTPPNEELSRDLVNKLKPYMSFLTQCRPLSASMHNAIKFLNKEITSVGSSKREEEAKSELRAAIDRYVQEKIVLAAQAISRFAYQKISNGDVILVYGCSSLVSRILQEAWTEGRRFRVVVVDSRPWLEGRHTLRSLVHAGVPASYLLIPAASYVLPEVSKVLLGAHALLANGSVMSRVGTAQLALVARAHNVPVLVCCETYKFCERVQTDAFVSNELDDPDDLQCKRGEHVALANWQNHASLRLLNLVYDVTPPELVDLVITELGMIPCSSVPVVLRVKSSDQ
UniProt P55884, whole entry, looked up: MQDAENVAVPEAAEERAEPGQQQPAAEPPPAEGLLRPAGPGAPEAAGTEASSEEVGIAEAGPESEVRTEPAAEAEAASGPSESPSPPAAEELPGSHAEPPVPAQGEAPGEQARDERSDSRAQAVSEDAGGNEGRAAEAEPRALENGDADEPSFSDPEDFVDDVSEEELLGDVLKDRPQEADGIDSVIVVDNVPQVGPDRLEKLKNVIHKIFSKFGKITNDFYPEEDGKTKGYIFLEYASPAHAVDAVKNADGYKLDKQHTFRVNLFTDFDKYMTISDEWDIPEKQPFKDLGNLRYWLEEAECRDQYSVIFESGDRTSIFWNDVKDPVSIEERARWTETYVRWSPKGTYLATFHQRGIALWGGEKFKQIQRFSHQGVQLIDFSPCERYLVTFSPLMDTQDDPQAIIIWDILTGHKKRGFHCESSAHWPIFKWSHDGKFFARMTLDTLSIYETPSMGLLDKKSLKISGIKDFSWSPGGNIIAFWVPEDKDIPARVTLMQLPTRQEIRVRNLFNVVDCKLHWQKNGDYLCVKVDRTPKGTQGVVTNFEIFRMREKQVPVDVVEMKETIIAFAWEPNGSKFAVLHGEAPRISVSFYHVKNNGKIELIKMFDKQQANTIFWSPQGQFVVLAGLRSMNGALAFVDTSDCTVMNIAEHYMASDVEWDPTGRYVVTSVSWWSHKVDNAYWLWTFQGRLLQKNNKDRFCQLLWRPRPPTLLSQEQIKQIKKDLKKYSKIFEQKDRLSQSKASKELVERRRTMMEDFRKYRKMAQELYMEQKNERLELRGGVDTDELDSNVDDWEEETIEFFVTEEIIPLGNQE

[2] = compound: CC1=C(C=C(C=C1)NC(=O)C2=CC(=CC=C2)N(C)C)NC(=O)C3=CC=C(C=C3)O
Procedure, shortened: as §1

[3] = compound: CC1=CC=C(C=C1)SC2=C3C=C(SC3=CN=C2)C(=O)N
Procedure, shortened: as §1

[4] = compound: CC1=NC(=CC=C1)C2=C(N=C(N2)C(C)(C)C)C3=CC4=NC=CN=C4C=C3
Procedure, shortened: as §1

Nexturastat A = compound: CCCCN(Cc1ccc(C(=O)NO)cc1)C(=O)Nc1ccccc1 [Nexturastat A]
Procedure, shortened: as §1

vemurafenib = compound: CCCS(=O)(=O)Nc1ccc(F)c(C(=O)c2c[nH]c3ncc(-c4ccc(Cl)cc4)cc23)c1F [vemurafenib]
Procedure, shortened: as §1

[5] = compound: CCCS(=O)(=O)Nc1ccc(F)c(C(=O)c2c[nH]c3ncc(Cl)cc23)c1F
Procedure, shortened: as §1

[6] = compound: CCCc1cc(C)[nH]c(=O)c1CNC(=O)c1cc(-c2ccnc(N3CCN(C)CC3)c2)cc2c1cnn2C(C)C
Procedure, shortened: as §1

givinostat = compound: CCN(CC)Cc1ccc2cc(COC(=O)Nc3ccc(C(=O)NO)cc3)ccc2c1 [givinostat]
Procedure, shortened: as §1

barasertib = compound: CCN(CCCOc1ccc2c(Nc3cc(CC(=O)Nc4cccc(F)c4)[nH]n3)ncnc2c1)CCOP(=O)(O)O [barasertib]
Procedure, shortened: as §1

[7] = compound: CC[C@@H]1C(=O)N(C)c2cnc(Nc3ccc(C(=O)NC4CCN(C)CC4)cc3OC)nc2N1C1CCCC1
Procedure, shortened: as §1

volasertib = compound: CC[C@@H]1C(=O)N(C)c2cnc(Nc3ccc(C(=O)N[C@H]4CC[C@H](N5CCN(CC6CC6)CC5)CC4)cc3OC)nc2N1C(C)C [volasertib]
Procedure, shortened: as §1

[8] = compound: CC[C@H](C)N1C=C(C2=C(C=C(C=C21)C3=CN=C(C=C3)N4CCNCC4)C(=O)NCC5=C(C=C(NC5=O)C)C)C
Procedure, shortened: as §1

epoxomicin = compound: CC[C@H](C)[C@@H](C(=O)N[C@@H]([C@@H](C)O)C(=O)N[C@@H](CC(C)C)C(=O)[C@]1(CO1)C)NC(=O)[C@H]([C@@H](C)CC)N(C)C(=O)C [epoxomicin]
Procedure, shortened: as §1

[9] = compound: CCn1c(C(=O)N(C2CC2)C2CC2)cc2c3c(ncn3C)c(Nc3cc(C)n(C)n3)nc21
Procedure, shortened: as §1

[10] = compound: CCn1cc(-c2ccnc3[nH]c(-c4cccc(CN(C)C)c4)cc23)c(-c2ccc(NC(=O)N(C)C)cc2)n1
Procedure, shortened: as §1

[11] = compound: CN(C)CC(=O)Nc1ccc2[nH]c(=O)c3ccccc3c2c1
Procedure, shortened: as §1

rosiglitazone = compound: CN(CCOC1=CC=C(C=C1)C[C@H]2C(=O)NC(=O)S2)C3=CC=CC=N3 (racemic) [rosiglitazone]
Procedure, shortened: as §1

[12] = compound: CN1C2=C(C3=C1C(=O)N(N=C3)CC4=CC(=CC=C4)N)SC(=C2)S(=O)C
Procedure, shortened: as §1

[13] = compound: CN1CCC(CNc2ccc3ncc(-c4cccc(OC(F)(F)F)c4)n3n2)CC1
Procedure, shortened: as §1

Measured: log2 fold change

EEF2 (UniProt P13639)
inactive: [1] 0.021 | [2] 0.007 | [3] -0.001 | [4] 0.027 | Nexturastat A -0.058 | vemurafenib 0.011 | [5] -0.012 | [6] 0.038 | givinostat -0.051 | barasertib 0.001 | [7] 0.005 | volasertib 0.057 | [8] -0.003 | epoxomicin 0.034 | [9] 0.013 | [10] 0.002 | [11] -0.002 | rosiglitazone 0.008 | [12] -0.044 | [13] 0.015

EIF4A2 isoform 2 (UniProt Q14240)
inactive: [1] -0.006 | [2] -0.031 | [3] 0.036 | [4] 0.044 | Nexturastat A -0.166 | vemurafenib 0.019 | [5] 0.039 | [6] 0.024 | givinostat 0.008 | barasertib 0.015 | [7] -0.045 | volasertib -0.109 | [8] 0.062 | epoxomicin -0.019 | [9] 0.003 | [10] 0 | [11] 0.017 | rosiglitazone 0.05 | [12] -0.056 | [13] -0.095

EIF6 (UniProt P56537)
inactive: [1] -0.044 | [2] 0.04 | [3] -0.031 | [4] 0.009 | Nexturastat A 0.039 | vemurafenib -0.044 | [5] -0.081 | [6] -0.005 | givinostat -0.005 | barasertib 0.009 | [7] 0.062 | volasertib 0.084 | [8] -0.079 | epoxomicin -0.024 | [9] -0.012 | [10] 0.035 | [11] -0.035 | rosiglitazone -0.033 | [12] 0.011 | [13] -0.018

ENDOG (UniProt Q14249)
inactive: [1] -0.012 | [2] -0.016 | [3] -0.038 | [4] 0.056 | Nexturastat A 0.004 | vemurafenib -0.002 | [5] 0.036 | [6] -0.003 | givinostat 0.033 | barasertib 0.04 | [7] -0.063 | volasertib -0.068 | [8] 0.007 | epoxomicin 0.146 | [9] -0.062 | [10] -0.015 | [11] -0.006 | rosiglitazone 0.025 | [12] -0.012 | [13] 0.056

EP300 (UniProt Q09472)
inactive: [1] -0.038 | [2] 0.016 | [3] 0.042 | [4] -0.062 | Nexturastat A 0.036 | vemurafenib 0.041 | [5] 0.055 | [6] 0.073 | givinostat -0.004 | barasertib -0.006 | [7] 0.045 | volasertib 0.016 | [8] 0.043 | epoxomicin -0.006 | [9] -0.028 | [10] -0.104 | [11] -0.003 | rosiglitazone -0.007 | [12] -0.015 | [13] 0.068

EML2 isoform 3 (UniProt O95834)
inactive: [1] 0 | [2] 0 | [3] -0.018 | [4] 0.034 | Nexturastat A -0.158 | vemurafenib -0.003 | [5] 0.006 | [6] -0.026 | givinostat -0.056 | barasertib 0 | [7] 0.018 | volasertib 0.037 | [8] 0.051 | epoxomicin 0.029 | [9] 0.038 | [10] -0.042 | [11] 0.012 | rosiglitazone 0.053 | [12] -0.086 | [13] -0.107

EIF3F (UniProt O00303)
inactive: [1] 0.113 | [2] -0.041 | [3] -0.006 | [4] 0.023 | Nexturastat A 0.09 | vemurafenib 0.023 | [5] 0.104 | [6] 0.053 | givinostat 0.034 | barasertib 0.057 | [7] -0.01 | volasertib -0.23 | [8] 0.064 | epoxomicin 0.06 | [9] -0.02 | [10] -0.026 | [11] 0.043 | rosiglitazone 0.008 | [12] 0.042 | [13] -0.005

ELOB (UniProt Q15370)
inactive: [1] -0.011 | [2] -0.035 | [3] -0.042 | [4] -0.005 | Nexturastat A 0.043 | vemurafenib -0.011 | [5] -0.02 | [6] 0.08 | givinostat -0.043 | barasertib 0.045 | [7] -0.042 | volasertib 0.056 | [8] -0.008 | epoxomicin -0.002 | [9] 0.03 | [10] -0.028 | [11] -0.007 | rosiglitazone -0.006 | [12] -0.032 | [13] -0.053

EFNB1 (UniProt P98172)
inactive: [1] 0.109 | [2] -0.02 | [3] 0.027 | [4] 0.009 | Nexturastat A 0.058 | vemurafenib -0.011 | [5] 0.011 | [6] 0.089 | givinostat 0.006 | barasertib 0.014 | [7] -0.036 | volasertib 0.051 | [8] -0.144 | epoxomicin 0.012 | [9] -0.084 | [10] -0.053 | [11] 0.02 | rosiglitazone -0.045 | [12] 0.428 | [13] 0.153

EMC10 (UniProt Q5UCC4)
inactive: [1] -0.03 | [2] -0.047 | [3] -0.006 | [4] 0.002 | Nexturastat A -0.122 | vemurafenib 0.043 | [5] 0.018 | [6] 0.01 | givinostat -0.01 | barasertib 0.027 | [7] -0.035 | volasertib 0.023 | [8] 0.004 | epoxomicin 0.012 | [9] 0.018 | [10] -0.055 | [11] 0.041 | rosiglitazone -0.014 | [12] -0.064 | [13] 0.052

EIF3A (UniProt Q14152)
inactive: [1] 0.013 | [2] -0.046 | [3] 0.039 | [4] -0.012 | Nexturastat A 0.166 | vemurafenib 0.043 | [5] 0.076 | [6] 0.069 | givinostat 0.074 | barasertib 0.067 | [7] -0.09 | volasertib -0.448 | [8] 0.136 | epoxomicin 0.043 | [9] -0.101 | [10] 0.024 | [11] 0.063 | rosiglitazone 0.051 | [12] 0.104 | [13] -0.159

EIF4G2 (UniProt P78344)
inactive: [1] -0.014 | [2] 0.058 | [3] 0.031 | [4] -0.026 | Nexturastat A 0.437 | vemurafenib 0.049 | [5] 0.089 | [6] 0.161 | givinostat 0.163 | barasertib 0.032 | [7] 0.334 | volasertib -0.182 | [8] 0.143 | epoxomicin -0.224 | [9] -0.146 | [10] 0.101 | [11] 0.04 | rosiglitazone -0.005 | [12] 0.348 | [13] -0.039

EIF2S1 (UniProt P05198)
inactive: [1] 0.003 | [2] -0.011 | [3] -0.018 | [4] -0.004 | Nexturastat A 0.047 | vemurafenib -0.029 | [5] -0.051 | [6] 0.01 | givinostat 0.011 | barasertib -0.022 | [7] 0.087 | volasertib 0.086 | [8] 0.011 | epoxomicin -0.096 | [9] -0.026 | [10] 0.073 | [11] -0.051 | rosiglitazone -0.018 | [12] 0.044 | [13] 0.07

EIF2B4 isoform 2 (UniProt Q9UI10)
inactive: [1] 0.019 | [2] 0.012 | [3] -0.012 | [4] -0.039 | Nexturastat A 0.045 | vemurafenib 0.024 | [5] 0.002 | [6] 0.028 | givinostat 0.045 | barasertib -0.001 | [7] 0.013 | volasertib -0.061 | [8] 0.018 | epoxomicin -0.005 | [9] -0.018 | [10] 0.002 | [11] 0.01 | rosiglitazone 0.011 | [12] -0.019 | [13] 0.148

EIF3B isoform 2 (UniProt P55884)
inactive: [1] -0.025 | [2] -0.036 | [3] 0.013 | [4] -0.036 | Nexturastat A 0.176 | vemurafenib 0.012 | [5] 0.048 | [6] 0.055 | givinostat 0.069 | barasertib 0.045 | [7] -0.016 | volasertib -0.29 | [8] 0.072 | epoxomicin -0.034 | [9] -0.061 | [10] 0.053 | [11] 0.015 | rosiglitazone 0.036 | [12] 0.15 | [13] -0.009

EIF1 (UniProt P41567)
inactive: [1] -0.005 | [2] 0.048 | [3] -0.019 | [4] -0.005 | Nexturastat A 0.015 | vemurafenib -0.031 | [5] -0.055 | [6] -0.053 | givinostat -0.042 | barasertib -0.047 | [7] 0.034 | volasertib 0.174 | [8] -0.033 | epoxomicin 0.052 | [9] 0.046 | [10] 0.045 | [11] -0.043 | rosiglitazone 0 | [12] -0.025 | [13] -0.011

Four consecutive records from above, for reference:
EIF3A (UniProt Q14152)
inactive: [1] 0.013 | [2] -0.046 | [3] 0.039 | [4] -0.012 | Nexturastat A 0.166 | vemurafenib 0.043 | [5] 0.076 | [6] 0.069 | givinostat 0.074 | barasertib 0.067 | [7] -0.09 | volasertib -0.448 | [8] 0.136 | epoxomicin 0.043 | [9] -0.101 | [10] 0.024 | [11] 0.063 | rosiglitazone 0.051 | [12] 0.104 | [13] -0.159

EIF4G2 (UniProt P78344)
inactive: [1] -0.014 | [2] 0.058 | [3] 0.031 | [4] -0.026 | Nexturastat A 0.437 | vemurafenib 0.049 | [5] 0.089 | [6] 0.161 | givinostat 0.163 | barasertib 0.032 | [7] 0.334 | volasertib -0.182 | [8] 0.143 | epoxomicin -0.224 | [9] -0.146 | [10] 0.101 | [11] 0.04 | rosiglitazone -0.005 | [12] 0.348 | [13] -0.039

EIF2S1 (UniProt P05198)
inactive: [1] 0.003 | [2] -0.011 | [3] -0.018 | [4] -0.004 | Nexturastat A 0.047 | vemurafenib -0.029 | [5] -0.051 | [6] 0.01 | givinostat 0.011 | barasertib -0.022 | [7] 0.087 | volasertib 0.086 | [8] 0.011 | epoxomicin -0.096 | [9] -0.026 | [10] 0.073 | [11] -0.051 | rosiglitazone -0.018 | [12] 0.044 | [13] 0.07

EIF2B4 isoform 2 (UniProt Q9UI10)
inactive: [1] 0.019 | [2] 0.012 | [3] -0.012 | [4] -0.039 | Nexturastat A 0.045 | vemurafenib 0.024 | [5] 0.002 | [6] 0.028 | givinostat 0.045 | barasertib -0.001 | [7] 0.013 | volasertib -0.061 | [8] 0.018 | epoxomicin -0.005 | [9] -0.018 | [10] 0.002 | [11] 0.01 | rosiglitazone 0.011 | [12] -0.019 | [13] 0.148
